Here are results for one molecule from paper PMC1557541.

Experiment [1] concerns the target T1, TAP-tagged YMR135C (gid8) (S. cerevisiae) (UniProt P40208).
T1 sequence: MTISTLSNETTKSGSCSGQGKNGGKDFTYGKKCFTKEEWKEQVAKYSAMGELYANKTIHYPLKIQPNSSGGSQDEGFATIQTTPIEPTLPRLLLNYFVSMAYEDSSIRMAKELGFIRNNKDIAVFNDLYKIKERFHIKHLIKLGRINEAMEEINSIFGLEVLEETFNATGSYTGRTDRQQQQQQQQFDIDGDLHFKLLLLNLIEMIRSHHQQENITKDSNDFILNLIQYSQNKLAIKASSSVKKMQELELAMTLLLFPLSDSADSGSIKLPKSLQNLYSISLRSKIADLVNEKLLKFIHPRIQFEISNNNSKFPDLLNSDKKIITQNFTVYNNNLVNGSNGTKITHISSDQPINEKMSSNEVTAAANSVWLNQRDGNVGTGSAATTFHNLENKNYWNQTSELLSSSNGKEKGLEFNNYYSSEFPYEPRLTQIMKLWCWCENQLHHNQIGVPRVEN
Nature of the experiment: affinity purification with mass spectrometry; tandem affinity purification (IgG and calmodulin columns) of the TAP-tagged protein from extracts of yeast cells (3 liters), native level of expression; SDS-PAGE with silver staining, bands identified by MALDI-TOF MS, other half of the mixture by LC-MS MS; TAP-tagged YGL227W also purified from the YDR255CΔ strain (all other members still co-purified).

Experiment [2] addresses T2, TAP-tagged YGL227W (vid30) (S. cerevisiae) (UniProt P53076).
T2 sequence: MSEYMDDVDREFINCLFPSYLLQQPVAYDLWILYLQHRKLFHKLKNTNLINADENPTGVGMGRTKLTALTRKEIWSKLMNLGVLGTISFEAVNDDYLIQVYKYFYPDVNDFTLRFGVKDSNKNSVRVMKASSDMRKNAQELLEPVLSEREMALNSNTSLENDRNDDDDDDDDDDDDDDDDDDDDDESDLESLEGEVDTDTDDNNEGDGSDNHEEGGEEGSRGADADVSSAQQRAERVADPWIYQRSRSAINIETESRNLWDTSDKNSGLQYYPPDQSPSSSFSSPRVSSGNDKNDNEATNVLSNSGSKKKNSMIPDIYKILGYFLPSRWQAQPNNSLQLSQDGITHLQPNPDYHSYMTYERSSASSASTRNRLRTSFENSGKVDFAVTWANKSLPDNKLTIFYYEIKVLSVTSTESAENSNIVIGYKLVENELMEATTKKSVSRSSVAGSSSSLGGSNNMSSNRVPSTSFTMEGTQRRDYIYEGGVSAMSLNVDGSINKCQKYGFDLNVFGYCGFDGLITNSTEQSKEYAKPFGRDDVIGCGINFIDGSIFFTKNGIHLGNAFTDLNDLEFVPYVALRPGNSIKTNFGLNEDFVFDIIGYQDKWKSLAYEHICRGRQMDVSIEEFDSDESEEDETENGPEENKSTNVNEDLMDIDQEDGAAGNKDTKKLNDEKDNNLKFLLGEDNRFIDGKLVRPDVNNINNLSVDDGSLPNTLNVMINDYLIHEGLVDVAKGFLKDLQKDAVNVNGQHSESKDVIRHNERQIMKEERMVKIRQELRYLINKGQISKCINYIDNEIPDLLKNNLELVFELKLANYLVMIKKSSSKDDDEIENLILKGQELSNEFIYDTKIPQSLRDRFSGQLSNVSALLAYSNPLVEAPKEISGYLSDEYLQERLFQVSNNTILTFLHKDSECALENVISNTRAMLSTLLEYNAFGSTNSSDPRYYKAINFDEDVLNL
The description is as above.

Results are given in words; binding and its absence hold for the method and conditions named. Binding seen in cells or lysates may run through a third protein. A yes stands for co-enrichment or nearness to the bait. Other partners may have been found. Sequences can lack the tags named with a protein.

B1: YDL176W (protein, UniProt Q12027 1-708)
chain: MATGRIQFAVSTPCNTKGKPSGYRLFEFKNDRLALVPSERGCTKVDVNANIQAFCYLRPNGRDTSISPDATHILDSCDYMVLAKSNGFIEIISNYQYKIKNGLRLAPSYILRCTPEDFESNFFSDYMIAGLEYSQGLLYCCMCSGRIYVFVMNLPTDYIQYKNMYNPMFPDCFFKVHHDNNTTHSSEEEKLFEGSTRYTGRSCSKHICYFLLPIEPSHLRSSPVVSSFCNMYQGLPIYRPSMYLHIERGISTFHINPLDRFCFMTVSPRSPLFIRKIILPLTYVTFLSTFISLKNSIQGDTCGEILSWDNVAQQNGFGSLFSWISNKFTFDTDIINSTIWDDIVKYSGTGMLDSGIVWKQRQGHAKDDIYELFHTQDMLGSSRRNSSFSTASSEPRPLSRRRRESFQALTRDAFRERMDVPCSTKWELDSFIRGLRRNTFMVDFEIVEKISHRNGNDGVNEDDNTTDESDETMTSFLTDNYKKMDIVCIDHFVTLSAFRPRYYDEPIIKIDSLSNKNGSENGTNEEEWAESQMKVDGQVIDDETAQFKQALGNLCSFKKLFMLDDSLCFILDTHGVLLINRFEIKNTKNLLRNSKDTIRIIPHDFGLINDTIVIINDIDVGTDNVCALTFHLVVTSMAGEITVLKGEFFKNCRLGRIKLCDSLKLNRKDRFVDKLALIDYDGLNAQKRRLDYDEKDLYTFIVKKVKRD
Take B1: the binding entry in experiment [1] and in experiment [2] was “binds” in each case.
